PubChem BioAssay AID1259286 | Sanger Institute | 2017

Assay: 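Kinases whose loss adds to targeted drug killing of colorectal cancer cells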 (primary screen)
System: NCI-H630 human colorectal cancer cells
Reagents: siRNA pool against human genes
Conditions: anchor drugs BYL719 at 1 µM, cetuximab at 5 µg/ml or trametinib at 10 nM, or DMSO vehicle alone; exposure time not given
Measured: 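Viability relative to non-targeting pool wells, averaged over replicates, with robust z-score for knock-down alone and a synergy score for each anchor drug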
Direction: viability z-score, knock-down alone: higher = more viable cells, weaker knock-down effect; viability vs control, knock-down alone: higher = more viable cells; synergy score with trametinib: higher = stronger synergistic killing with trametinib; synergy score with BYL719: higher = stronger synergistic killing with BYL719; synergy score with cetuximab: higher = stronger synergistic killing with cetuximab
Active means: 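Essential call: robust z-score of viability with siRNA alone lower than -3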
Calls: active = essential when knocked down alone; inactive = not essential alone
In all, the deposit lists 794 reagents; below is an unselected part. Of all reagents, 17 (2.1%) were called active. 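Calls use knock-down alone only; synergy above 0.15 marked separately; viability seems capped at control level; exposure time not given.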 Reagent sequences are not shown. The record does not give: the amount of reagent, the time to read-out.

target	PubChem SID	viability z-score, knock-down alone	viability vs control, knock-down alone (fraction of control)	synergy score with trametinib	synergy score with BYL719	synergy score with cetuximab	outcome
PKMYT1	SID56478956	0.464	1	-0.0176	-0.0492	0.0322	inactive
PDXK	SID56478979	-0.827	0.951	-0.0943	-0.122	-0.141	inactive
KMT2B	SID134314396	-1.49	0.926	-0.0851	-0.066	-0.0338	inactive
FASTK	SID56479004	-1.78	0.915	-0.0895	-0.0161	0.0343	inactive
PRKAA1	SID152155693	0.464	1	-0.0147	-0.027	0.0724	inactive
GALK2	SID56479099	0.33	0.995	-0.0304	0.0517	0.0294	inactive
ARID1A	SID152147093	-0.142	0.977	0.0156	-0.102	-0.0955	inactive
PDK1	SID56478951	0.464	1	-0.0161	-0.0321	-0.121	inactive
NEK11	SID152147168	0.464	1	-0.0479	-0.0577	0.0318	inactive
STK35	SID135620978	0.464	1	-0.0479	0.0294	0.0616	inactive
PRKCA	SID56478672	-1.47	0.927	-0.117	-0.0587	-0.065	inactive
PFKFB3	SID135621247	-0.445	0.966	0.0457	0.0379	0.02	inactive
DGUOK	SID152155858	0.464	1	-0.0479	0.0239	0.0258	inactive
STK32B	SID56478812	-2.09	0.904	-0.123	-0.0605	-0.0441	inactive
TESK2	SID135620925	0.464	1	-0.0479	-0.0814	-0.0126	inactive
BRSK2	SID152155603	0.464	1	-0.0479	0.0128	0.027	inactive
CAMK1D	SID152153083	0.464	1	-0.0479	-0.0814	0.104	inactive
DYRK1B	SID56478878	-1.91	0.91	-0.0749	-0.0971	0.0466	inactive
DGKK	SID135624472	-0.159	0.976	-0.0577	0.0216	-0.00925	inactive
PCK1	SID135621257	-0.902	0.948	-0.0492	0.0275	0.0749	inactive
HK1	SID56479165	0.464	1	-0.0479	-0.00101	0.0689	inactive
MAP3K1	SID152150888	0.464	1	-0.0479	-0.0814	-0.0157	inactive
CDC42BPB	SID152149037	0.464	1	0.0188	-0.0814	-0.00338	inactive
CDK19	SID56478856	0.00392	0.983	-0.0644	0.0737	0.0555	inactive
ERN2	SID135620900	0.464	1	-0.0479	-0.0218	0.034	inactive
PRKG2	SID56478832	0.464	1	-0.0479	-0.0695	-0.0152	inactive
MECOM	SID135621208	0.464	1	-0.0479	-0.0568	0.0699	inactive
DAPK3	SID56478935	0.464	1	0.00065	0.0506	0.0188	inactive
PFKFB2	SID135621246	-0.754	0.954	-0.0218	-0.0203	-0.0297	inactive
NME2	SID152149420	0.464	1	-0.0479	0.0184	0.014	inactive
CLSPN	SID134310856	-0.466	0.965	0.0311	0.11	0.142	inactive
PRKACG	SID56478826	0.464	1	-0.00447	0.0317	0.0904	inactive
KHK	SID135621242	0.464	1	-0.0479	0.0135	0.0437	inactive
IDH2	SID134310230	0.464	1	0.0791	-0.0814	-0.0764	inactive
PRKCE	SID135620860	0.464	1	0.0876	-0.0263	0.0433	inactive
CDC7	SID56478594	-1.57	0.923	0.0321	-0.0083	0.0525	inactive
MGA	SID135624287	0.277	0.993	0.0424	-0.0138	0.068	inactive
STK25	SID135620899	-0.528	0.962	-0.00237	0.0497	0.0275	inactive
CSNK1D	SID56478658	0.464	1	-0.0479	-0.0814	0.0887	inactive
PHKA2	SID56479176	-0.103	0.979	-0.024	-0.101	-0.0347	inactive
MYLK	SID152147192	0.464	1	0.0166	0.101	0.138	inactive
AURKC	SID152150186	0.464	1	-0.0479	-0.0814	0.0238	inactive
CNOT1	SID134319414	-3.26	0.859	-0.0293	-0.00737	-0.0294	active
MAST3	SID152151496	0.464	1	-0.0335	-0.0538	0.00958	inactive
NEK10	SID56478763	-0.147	0.977	-0.0699	0.123	0.0604	inactive
SMAD2	SID152156776	0.464	1	-0.0479	-0.0814	0.0448	inactive
DGKD	SID56479091	-1.85	0.912	-0.0762	-0.115	0.0397	inactive
HSPB8	SID56478941	-2.66	0.882	-0.0116	-0.0577	-0.128	inactive
ALK	SID56478483	0.464	1	-0.0331	0.018	0.0353	inactive
PRKCQ	SID56478674	0.464	1	0.00687	-0.0662	0.0262	inactive

2 entries already listed, arranged by “synergy score with BYL719”, ascending:
target	PubChem SID	viability z-score, knock-down alone	viability vs control, knock-down alone (fraction of control)	synergy score with trametinib	synergy score with BYL719	synergy score with cetuximab	outcome
PDXK	SID56478979	-0.827	0.951	-0.0943	-0.122	-0.141	inactive
PKMYT1	SID56478956	0.464	1	-0.0176	-0.0492	0.0322	inactive
